Source: the supplement of paper PMC10849652
Some of the results follow.

Amino acid sequences for entries named in this document (tags omitted). A change or cut given only in a name is not applied to a line headed by its entry.
UniProt Q14318: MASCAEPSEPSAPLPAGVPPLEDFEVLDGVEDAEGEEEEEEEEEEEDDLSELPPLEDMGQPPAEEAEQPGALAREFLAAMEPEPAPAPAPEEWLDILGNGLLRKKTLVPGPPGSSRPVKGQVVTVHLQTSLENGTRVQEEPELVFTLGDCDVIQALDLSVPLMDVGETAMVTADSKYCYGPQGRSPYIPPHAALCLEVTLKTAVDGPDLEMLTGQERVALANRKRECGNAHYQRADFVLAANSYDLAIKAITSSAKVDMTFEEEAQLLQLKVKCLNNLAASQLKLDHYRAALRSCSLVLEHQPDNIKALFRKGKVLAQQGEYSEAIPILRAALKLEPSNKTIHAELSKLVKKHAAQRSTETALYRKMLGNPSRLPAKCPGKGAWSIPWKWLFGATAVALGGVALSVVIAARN
UniProt P31995: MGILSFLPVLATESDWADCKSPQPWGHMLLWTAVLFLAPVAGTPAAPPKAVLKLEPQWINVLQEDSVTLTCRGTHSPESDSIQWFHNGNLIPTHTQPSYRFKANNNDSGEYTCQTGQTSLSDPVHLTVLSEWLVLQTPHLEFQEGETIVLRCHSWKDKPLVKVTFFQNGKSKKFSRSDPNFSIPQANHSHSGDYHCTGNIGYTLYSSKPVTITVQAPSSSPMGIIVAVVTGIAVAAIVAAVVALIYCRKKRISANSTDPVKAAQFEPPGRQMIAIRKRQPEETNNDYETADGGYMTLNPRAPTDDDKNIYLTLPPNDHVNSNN
UniProt O95684: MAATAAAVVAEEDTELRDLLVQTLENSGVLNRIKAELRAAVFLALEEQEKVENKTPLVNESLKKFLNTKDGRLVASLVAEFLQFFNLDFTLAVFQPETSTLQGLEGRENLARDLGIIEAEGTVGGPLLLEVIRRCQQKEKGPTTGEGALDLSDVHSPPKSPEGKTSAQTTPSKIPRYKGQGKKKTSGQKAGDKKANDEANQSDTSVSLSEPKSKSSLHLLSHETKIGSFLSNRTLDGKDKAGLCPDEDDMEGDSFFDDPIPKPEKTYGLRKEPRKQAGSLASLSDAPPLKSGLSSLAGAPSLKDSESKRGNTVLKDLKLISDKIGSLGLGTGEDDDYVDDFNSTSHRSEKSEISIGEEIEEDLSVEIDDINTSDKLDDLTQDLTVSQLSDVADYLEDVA
UniProt Q8TB52: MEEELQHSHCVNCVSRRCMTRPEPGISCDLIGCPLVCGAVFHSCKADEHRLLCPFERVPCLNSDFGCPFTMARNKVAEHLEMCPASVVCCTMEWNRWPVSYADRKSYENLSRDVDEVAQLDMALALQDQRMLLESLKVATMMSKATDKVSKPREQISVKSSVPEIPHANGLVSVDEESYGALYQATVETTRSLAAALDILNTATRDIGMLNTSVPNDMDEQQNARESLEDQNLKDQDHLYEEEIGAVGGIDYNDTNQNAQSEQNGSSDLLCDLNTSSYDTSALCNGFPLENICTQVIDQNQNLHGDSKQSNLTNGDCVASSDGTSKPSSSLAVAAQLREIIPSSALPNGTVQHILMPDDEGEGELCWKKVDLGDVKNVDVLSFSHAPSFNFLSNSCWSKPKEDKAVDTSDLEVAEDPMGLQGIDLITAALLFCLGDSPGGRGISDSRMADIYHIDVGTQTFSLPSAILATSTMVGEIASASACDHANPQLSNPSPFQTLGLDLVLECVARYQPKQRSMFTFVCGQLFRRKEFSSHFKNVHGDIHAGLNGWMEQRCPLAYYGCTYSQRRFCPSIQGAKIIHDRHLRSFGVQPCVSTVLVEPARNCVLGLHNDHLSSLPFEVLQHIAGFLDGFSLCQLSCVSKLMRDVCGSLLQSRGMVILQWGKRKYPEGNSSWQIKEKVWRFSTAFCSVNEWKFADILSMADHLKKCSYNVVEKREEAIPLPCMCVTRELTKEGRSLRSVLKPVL
UniProt Q6P4F2: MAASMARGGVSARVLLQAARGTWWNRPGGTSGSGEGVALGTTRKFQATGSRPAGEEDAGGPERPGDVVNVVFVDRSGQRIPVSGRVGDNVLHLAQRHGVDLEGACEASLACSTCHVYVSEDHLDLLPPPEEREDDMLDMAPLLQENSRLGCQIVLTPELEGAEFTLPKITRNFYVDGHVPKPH
UniProt A6NHQ2: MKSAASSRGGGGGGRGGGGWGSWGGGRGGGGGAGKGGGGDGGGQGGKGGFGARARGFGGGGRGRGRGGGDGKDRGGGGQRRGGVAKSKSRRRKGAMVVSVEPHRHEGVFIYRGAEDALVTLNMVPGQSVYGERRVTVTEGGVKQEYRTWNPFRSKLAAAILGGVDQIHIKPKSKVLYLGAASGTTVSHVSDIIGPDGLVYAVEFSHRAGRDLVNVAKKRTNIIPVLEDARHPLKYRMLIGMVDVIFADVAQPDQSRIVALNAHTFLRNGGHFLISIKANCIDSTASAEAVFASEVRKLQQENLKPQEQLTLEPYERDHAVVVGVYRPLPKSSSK
UniProt Q6UN15: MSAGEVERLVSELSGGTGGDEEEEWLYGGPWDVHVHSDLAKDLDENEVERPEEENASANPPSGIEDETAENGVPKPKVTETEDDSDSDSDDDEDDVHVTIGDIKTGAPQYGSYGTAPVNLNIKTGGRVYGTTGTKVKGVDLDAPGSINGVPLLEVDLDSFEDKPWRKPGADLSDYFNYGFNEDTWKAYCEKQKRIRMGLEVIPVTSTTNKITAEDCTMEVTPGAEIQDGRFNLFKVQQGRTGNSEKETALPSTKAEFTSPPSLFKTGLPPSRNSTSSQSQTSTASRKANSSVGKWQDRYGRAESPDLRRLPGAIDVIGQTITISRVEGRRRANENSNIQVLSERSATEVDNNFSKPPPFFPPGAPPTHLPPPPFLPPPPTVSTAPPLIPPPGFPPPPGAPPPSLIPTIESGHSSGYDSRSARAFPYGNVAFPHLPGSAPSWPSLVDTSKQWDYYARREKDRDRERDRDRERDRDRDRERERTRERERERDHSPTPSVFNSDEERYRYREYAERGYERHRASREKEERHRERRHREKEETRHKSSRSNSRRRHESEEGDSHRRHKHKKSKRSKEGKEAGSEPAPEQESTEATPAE
UniProt Q96ND0: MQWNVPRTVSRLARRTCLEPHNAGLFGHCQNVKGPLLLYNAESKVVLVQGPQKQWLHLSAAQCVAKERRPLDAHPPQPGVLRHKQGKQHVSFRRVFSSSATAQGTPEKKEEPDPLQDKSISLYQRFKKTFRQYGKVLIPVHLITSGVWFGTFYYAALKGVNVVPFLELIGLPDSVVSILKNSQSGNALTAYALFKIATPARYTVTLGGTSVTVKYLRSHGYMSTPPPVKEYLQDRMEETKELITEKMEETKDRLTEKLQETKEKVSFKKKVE
UniProt Q9UBU6: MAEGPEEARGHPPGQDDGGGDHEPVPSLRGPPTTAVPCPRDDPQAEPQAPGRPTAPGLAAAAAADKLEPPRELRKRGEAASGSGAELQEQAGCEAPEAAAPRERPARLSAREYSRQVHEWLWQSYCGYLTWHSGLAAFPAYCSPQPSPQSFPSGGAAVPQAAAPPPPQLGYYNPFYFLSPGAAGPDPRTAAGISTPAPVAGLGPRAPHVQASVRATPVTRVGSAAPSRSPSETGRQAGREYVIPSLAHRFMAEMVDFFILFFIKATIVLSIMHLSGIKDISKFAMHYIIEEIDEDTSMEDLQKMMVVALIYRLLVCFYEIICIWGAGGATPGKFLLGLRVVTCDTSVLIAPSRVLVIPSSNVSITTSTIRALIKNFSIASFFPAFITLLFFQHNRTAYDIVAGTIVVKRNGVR
UniProt Q9UK99: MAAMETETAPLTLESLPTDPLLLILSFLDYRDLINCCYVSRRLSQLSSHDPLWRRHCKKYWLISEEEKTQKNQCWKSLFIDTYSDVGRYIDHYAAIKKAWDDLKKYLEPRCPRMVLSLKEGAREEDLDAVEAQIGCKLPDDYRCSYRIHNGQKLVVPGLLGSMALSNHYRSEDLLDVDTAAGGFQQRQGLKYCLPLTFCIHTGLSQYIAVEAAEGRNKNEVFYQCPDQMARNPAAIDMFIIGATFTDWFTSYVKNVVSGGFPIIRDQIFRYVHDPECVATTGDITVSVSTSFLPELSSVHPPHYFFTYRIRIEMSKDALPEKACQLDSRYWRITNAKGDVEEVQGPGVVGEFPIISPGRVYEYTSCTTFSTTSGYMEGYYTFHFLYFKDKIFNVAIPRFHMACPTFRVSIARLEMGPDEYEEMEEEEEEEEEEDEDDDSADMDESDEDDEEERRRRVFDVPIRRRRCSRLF
UniProt Q9UK73, whole entry, looked up: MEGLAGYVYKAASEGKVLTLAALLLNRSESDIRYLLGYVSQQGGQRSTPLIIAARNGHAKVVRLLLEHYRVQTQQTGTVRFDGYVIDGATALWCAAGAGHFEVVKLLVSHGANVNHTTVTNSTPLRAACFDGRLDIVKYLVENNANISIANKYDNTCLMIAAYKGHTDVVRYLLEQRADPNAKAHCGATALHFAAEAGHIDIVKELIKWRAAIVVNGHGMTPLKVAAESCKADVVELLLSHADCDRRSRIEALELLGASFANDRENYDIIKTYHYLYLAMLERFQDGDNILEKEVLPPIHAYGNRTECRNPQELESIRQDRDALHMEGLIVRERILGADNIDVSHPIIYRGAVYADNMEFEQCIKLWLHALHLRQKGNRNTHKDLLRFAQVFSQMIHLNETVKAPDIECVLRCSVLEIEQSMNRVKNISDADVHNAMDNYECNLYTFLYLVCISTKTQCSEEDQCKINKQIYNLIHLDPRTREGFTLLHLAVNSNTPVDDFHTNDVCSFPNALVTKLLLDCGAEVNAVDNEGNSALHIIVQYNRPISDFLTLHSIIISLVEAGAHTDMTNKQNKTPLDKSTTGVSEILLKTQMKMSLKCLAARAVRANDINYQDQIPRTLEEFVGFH
UniProt Q9UKT8: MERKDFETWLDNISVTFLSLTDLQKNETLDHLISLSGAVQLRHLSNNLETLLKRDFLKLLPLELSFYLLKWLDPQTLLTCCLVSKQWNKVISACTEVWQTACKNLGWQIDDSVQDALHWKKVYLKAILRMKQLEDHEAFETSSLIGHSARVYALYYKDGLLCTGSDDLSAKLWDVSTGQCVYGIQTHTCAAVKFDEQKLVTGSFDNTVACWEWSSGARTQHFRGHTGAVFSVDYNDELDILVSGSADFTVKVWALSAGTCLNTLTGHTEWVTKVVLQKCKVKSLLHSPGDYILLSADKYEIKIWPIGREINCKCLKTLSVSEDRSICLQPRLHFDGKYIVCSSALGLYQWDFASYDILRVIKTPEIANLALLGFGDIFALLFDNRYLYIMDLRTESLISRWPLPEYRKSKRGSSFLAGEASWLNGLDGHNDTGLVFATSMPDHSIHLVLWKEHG
UniProt Q8N3X1: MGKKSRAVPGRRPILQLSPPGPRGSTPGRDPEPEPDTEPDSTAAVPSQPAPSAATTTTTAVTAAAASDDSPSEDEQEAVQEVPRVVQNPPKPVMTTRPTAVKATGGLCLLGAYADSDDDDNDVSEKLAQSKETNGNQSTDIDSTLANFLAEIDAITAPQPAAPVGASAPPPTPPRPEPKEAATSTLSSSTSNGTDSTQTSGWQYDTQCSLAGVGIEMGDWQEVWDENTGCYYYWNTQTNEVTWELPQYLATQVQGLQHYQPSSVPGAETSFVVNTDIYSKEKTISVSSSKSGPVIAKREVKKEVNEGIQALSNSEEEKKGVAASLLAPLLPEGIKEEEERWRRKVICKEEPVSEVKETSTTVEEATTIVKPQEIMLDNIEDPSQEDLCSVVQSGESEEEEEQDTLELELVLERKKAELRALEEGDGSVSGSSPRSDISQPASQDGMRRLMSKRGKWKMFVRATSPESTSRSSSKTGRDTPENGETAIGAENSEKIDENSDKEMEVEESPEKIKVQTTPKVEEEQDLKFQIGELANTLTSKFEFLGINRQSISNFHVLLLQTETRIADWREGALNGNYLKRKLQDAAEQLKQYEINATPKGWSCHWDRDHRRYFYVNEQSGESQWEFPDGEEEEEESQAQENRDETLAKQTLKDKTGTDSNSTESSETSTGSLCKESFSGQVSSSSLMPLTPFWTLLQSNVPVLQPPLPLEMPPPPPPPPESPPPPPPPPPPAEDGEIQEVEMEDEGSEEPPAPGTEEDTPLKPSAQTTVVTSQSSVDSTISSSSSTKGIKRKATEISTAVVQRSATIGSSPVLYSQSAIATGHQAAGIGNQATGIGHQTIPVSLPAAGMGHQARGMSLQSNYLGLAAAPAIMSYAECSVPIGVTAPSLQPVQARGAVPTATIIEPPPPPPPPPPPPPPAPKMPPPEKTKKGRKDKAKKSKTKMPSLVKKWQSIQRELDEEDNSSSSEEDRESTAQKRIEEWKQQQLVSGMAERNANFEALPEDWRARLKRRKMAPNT
UniProt Q9NXK8: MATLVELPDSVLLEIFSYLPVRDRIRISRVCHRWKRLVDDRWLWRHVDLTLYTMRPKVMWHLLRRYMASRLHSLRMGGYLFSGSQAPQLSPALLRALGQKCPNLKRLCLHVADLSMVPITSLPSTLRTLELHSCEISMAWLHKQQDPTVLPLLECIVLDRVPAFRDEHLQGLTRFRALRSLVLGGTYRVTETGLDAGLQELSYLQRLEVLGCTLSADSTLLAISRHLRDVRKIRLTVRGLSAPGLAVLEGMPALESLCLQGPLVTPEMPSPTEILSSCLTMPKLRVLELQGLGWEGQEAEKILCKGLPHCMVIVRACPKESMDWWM

Legend:
Experiment in all cases: log2 fold change, soluble protein after heating vs DMSO (PISA); higher = thermal stabilisation; K562 cells, 10 uM, 30 min; active = over 0.2 and 3.5 SD of the protein, either way, in both replicates (recomputed)
[1] = compound: CS(=O)(=O)c1ccc(-c2cnc(N)c(C(=O)Nc3ccccc3)n2)cc1
In short: (§1)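 K562 cells (2×10^6 cells/mL) were treated with 10 μM compound for 30 min, and aliquots were heated for 3 min over 48°C-58°C. Pooled aliquots were extracted in PBS with 0.5% NP-40 at 4°C, and the supernatant after 21,000xg for 90 min was measured by TMTpro 16plex LC-MS/MS with channel sums equalised. Reported thermal stability, relative to control samples and from duplicates, is a log2 fold change.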

crizotinib = compound: C[C@@H](Oc1cc(-c2cnn(C3CCNCC3)c2)cnc1N)c1c(Cl)ccc(F)c1Cl [crizotinib]
In short: as §1

[2] = compound: C[C@@H]1COCCN1C2=NC(=NC(=C2)C3(CC3)S(=O)(=O)C)C4=C5C=CNC5=CC=C4
In short: as §1

[3] = compound: C[C@H](C1=CC=C(C=C1)C(=O)NC2=C3C=CNC3=NC=C2)N
In short: as §1

duvelisib = compound: C[C@H](Nc1ncnc2nc[nH]c12)c1cc2cccc(Cl)c2c(=O)n1-c1ccccc1 [duvelisib]
In short: as §1

gandotinib = compound: Cc1cc(Nc2cc(CN3CCOCC3)c3nc(C)c(Cc4ccc(Cl)cc4F)n3n2)n[nH]1 [gandotinib]
In short: as §1

tozasertib = compound: Cc1cc(Nc2cc(N3CCN(C)CC3)nc(Sc3ccc(NC(=O)C4CC4)cc3)n2)n[nH]1 [tozasertib]
In short: as §1

[4] = compound: Cc1cc(SCc2sc(-c3ccc(C(F)(F)F)cc3)nc2C)ccc1OCC(=O)O
In short: as §1

doramapimod = compound: Cc1ccc(-n2nc(C(C)(C)C)cc2NC(=O)Nc2ccc(OCCN3CCOCC3)c3ccccc23)cc1 [doramapimod]
In short: as §1

ispinesib = compound: Cc1ccc(C(=O)N(CCCN)[C@@H](c2nc3cc(Cl)ccc3c(=O)n2Cc2ccccc2)C(C)C)cc1 [ispinesib]
In short: as §1

Measured: log2 fold change

FLCN (UniProt Q8NFG4)
inactive: [1] 0.048 | crizotinib -0.286 | [2] 0.199 | [3] 0.18 | duvelisib -0.075 | gandotinib 0.071 | tozasertib -0.143 | [4] 0.069 | doramapimod 0.005 | ispinesib -0.252

FN3KRP (UniProt Q9HA64)
inactive: [1] -0.005 | crizotinib 0.033 | [2] 0.013 | [3] -0.087 | duvelisib 0.028 | gandotinib 0.048 | tozasertib -0.038 | [4] -0.014 | doramapimod -0.025 | ispinesib 0.063

FKBP8 isoform 2 (UniProt Q14318)
inactive: [1] 0.042 | crizotinib -0.095 | [2] -0.174 | [3] 0.212 | duvelisib -0.086 | gandotinib 0.078 | tozasertib -0.036 | [4] 0.153 | doramapimod 0.177 | ispinesib -0.318

FBXL20 (UniProt Q96IG2)
inactive: [1] -0.002 | crizotinib 0.075 | [2] 0.088 | [3] -0.147 | duvelisib 0.052 | gandotinib -0.05 | tozasertib -0.06 | [4] -0.052 | doramapimod 0.09 | ispinesib -0.016

FCGR2C (UniProt P31995)
inactive: [1] 0.002 | crizotinib 0.136 | [2] 0.022 | [3] -0.11 | duvelisib 0.074 | gandotinib 0 | tozasertib -0.068 | [4] -0.097 | doramapimod -0.018 | ispinesib 0.094

FGFR1OP (UniProt O95684)
inactive: [1] -0.014 | crizotinib -0.034 | [2] -0.008 | [3] -0.02 | duvelisib -0.006 | gandotinib -0.115 | tozasertib -0.005 | [4] 0 | doramapimod -0.056 | ispinesib -0.084

FBXO30 (UniProt Q8TB52)
inactive: [1] 0.032 | crizotinib -0.088 | [2] 0.151 | [3] -0.053 | duvelisib 0.014 | gandotinib -0.037 | tozasertib -0.004 | [4] 0.007 | doramapimod -0.003 | ispinesib 0.017

FLOT1 (UniProt O75955)
inactive: [1] 0.191 | crizotinib 0.042 | [2] -0.354 | [3] 0.413 | duvelisib -0.09 | gandotinib 0.157 | tozasertib 0.091 | [4] 0.191 | doramapimod 0.12 | ispinesib -0.225

FDX2 (UniProt Q6P4F2)
inactive: [1] 0.018 | crizotinib 0.166 | [2] 0.097 | [3] -0.037 | duvelisib 0.091 | gandotinib 0.09 | tozasertib 0.024 | [4] 0.012 | doramapimod 0.028 | ispinesib 0.063

FBLL1 (UniProt A6NHQ2)
inactive: [1] 0.036 | crizotinib 0.038 | [2] -0.217 | [3] 0.217 | duvelisib -0.046 | gandotinib 0.3 | tozasertib 0.067 | [4] -0.011 | doramapimod 0.144 | ispinesib 0.2

FLOT2 (UniProt Q14254)
inactive: [1] 0.085 | crizotinib 0.207 | [2] -0.132 | [3] 0.251 | duvelisib -0.064 | gandotinib 0.06 | tozasertib 0.1 | [4] 0.117 | doramapimod 0.146 | ispinesib -0.027

FBXW9 (UniProt Q5XUX1)
inactive: [1] 0.03 | crizotinib 0.014 | [2] 0.063 | [3] 0.121 | duvelisib 0.041 | tozasertib -0.014 | [4] 0.005 | doramapimod 0.019 | ispinesib 0.042

FCHSD1 (UniProt Q86WN1)
inactive: [1] 0.019 | crizotinib -0.01 | [2] 0.015 | [3] -0.049 | duvelisib 0.093 | gandotinib -0.083 | [4] -0.012 | doramapimod 0.03 | ispinesib 0.051

FLNC (UniProt Q14315)
inactive: [1] 0.05 | crizotinib 0.008 | [2] 0.041 | [3] -0.023 | duvelisib 0 | gandotinib -0.049 | tozasertib 0.044 | [4] 0.032 | doramapimod -0.008 | ispinesib 0.049

FLII (UniProt Q13045)
inactive: [1] 0.048 | crizotinib -0.011 | [2] 0.035 | [3] 0.03 | duvelisib 0.027 | gandotinib -0.022 | tozasertib 0.032 | [4] 0.018 | doramapimod -0.018 | ispinesib 0.027

FIP1L1 (UniProt Q6UN15)
inactive: [1] -0.086 | crizotinib -0.035 | [2] -0.074 | [3] -0.02 | duvelisib -0.052 | gandotinib 0.051 | tozasertib -0.067 | [4] -0.076 | doramapimod 0.006 | ispinesib -0.022

FAM50A (UniProt Q14320)
inactive: [1] 0.009 | crizotinib 0.129 | [2] 0.026 | [3] -0.06 | gandotinib 0.147 | [4] 0.092 | doramapimod -0.061 | ispinesib 0.095

FAM210B (UniProt Q96KR6)
inactive: [1] 0.058 | crizotinib 0.029 | [2] 0.018 | [3] 0.045 | duvelisib -0.005 | gandotinib -0.043 | [4] -0.001 | doramapimod -0.001 | ispinesib 0.099

FASTKD2 (UniProt Q9NYY8)
inactive: [1] 0.019 | crizotinib -0.043 | [2] 0.061 | [3] -0.038 | duvelisib 0.005 | gandotinib -0.094 | tozasertib 0.02 | [4] 0.044 | doramapimod 0.019 | ispinesib -0.064

FAM210A (UniProt Q96ND0)
inactive: [1] 0.025 | crizotinib 0.056 | [2] 0.008 | [3] -0.058 | duvelisib 0.057 | gandotinib 0.004 | tozasertib -0.02 | [4] 0.016 | doramapimod -0.046 | ispinesib 0.025

FAM8A1 (UniProt Q9UBU6)
inactive: [1] 0.034 | crizotinib -0.028 | [2] 0.042 | [3] -0.002 | duvelisib -0.025 | gandotinib 0.049 | tozasertib -0.085 | [4] 0.086 | doramapimod -0.009 | ispinesib -0.047

FBXO3 (UniProt Q9UK99)
inactive: [1] 0.055 | crizotinib 0.005 | [2] -0.095 | [3] 0.008 | gandotinib -0.112 | [4] -0.025 | doramapimod -0.003 | ispinesib 0.082

FEM1B (UniProt Q9UK73)
inactive: [1] -0.009 | crizotinib 0.052 | [2] -0.063 | [3] 0.001 | duvelisib 0.076 | gandotinib 0.023 | tozasertib -0.047 | [4] 0.024 | doramapimod 0.011 | ispinesib 0.076

FBXW2 (UniProt Q9UKT8)
inactive: [1] 0.083 | crizotinib 0.059 | [2] 0.003 | [3] 0.024 | duvelisib -0.108 | tozasertib -0.146 | [4] -0.039 | doramapimod 0.052 | ispinesib -0.104

FNBP4 isoform 2 (UniProt Q8N3X1)
inactive: [1] -0.01 | crizotinib 0.073 | [2] -0.005 | [3] -0.054 | duvelisib -0.007 | gandotinib -0.014 | tozasertib 0.002 | [4] -0.045 | doramapimod -0.011 | ispinesib 0.014

FGF13 isoform 3 (UniProt Q92913)
inactive: [1] 0.049 | crizotinib -0.005 | [2] 0.059 | [3] 0.026 | duvelisib 0.123 | gandotinib -0.045 | tozasertib -0.033 | [4] 0.125 | doramapimod -0.011 | ispinesib 0.09

FIZ1 (UniProt Q96SL8)
inactive: [1] -0.05 | crizotinib 0.018 | [2] -0.354 | [3] 0.074 | gandotinib 0.024 | [4] 0.017 | doramapimod 0.044

FBXL12 (UniProt Q9NXK8)
inactive: [1] -0.022 | crizotinib 0.105 | [2] -0.007 | [3] -0.088 | duvelisib 0.013 | gandotinib 0.035 | tozasertib -0.047 | [4] 0.017 | doramapimod 0.11 | ispinesib 0.023

FAM3A (UniProt P98173)
inactive: [1] 0.01 | crizotinib -0.071 | [2] 0.07 | [3] 0.01 | gandotinib 0.014 | [4] -0.075 | doramapimod 0.009 | ispinesib -0.065

Three entries picked at random from those above:
FIZ1 (UniProt Q96SL8)
inactive: [1] -0.05 | crizotinib 0.018 | [2] -0.354 | [3] 0.074 | gandotinib 0.024 | [4] 0.017 | doramapimod 0.044

FAM3A (UniProt P98173)
inactive: [1] 0.01 | crizotinib -0.071 | [2] 0.07 | [3] 0.01 | gandotinib 0.014 | [4] -0.075 | doramapimod 0.009 | ispinesib -0.065

FBXL12 (UniProt Q9NXK8)
inactive: [1] -0.022 | crizotinib 0.105 | [2] -0.007 | [3] -0.088 | duvelisib 0.013 | gandotinib 0.035 | tozasertib -0.047 | [4] 0.017 | doramapimod 0.11 | ispinesib 0.023

(cont.)

FARS2 (UniProt O95363)
inactive: [1] 0.004 | crizotinib -0.043 | [2] 0.088 | [3] 0.041 | gandotinib -0.021 | [4] 0.06 | doramapimod -0.023 | ispinesib -0.157

FAU (UniProt P62861)
inactive: [1] -0.086 | crizotinib -0.016 | [2] -0.595 | [3] 0.381 | duvelisib -0.164 | gandotinib 0.202 | tozasertib 0.017 | [4] 0.057 | doramapimod 0.187 | ispinesib -0.312
